# Measured values published in the supplement of paper PMC12024529.
# Structures can show the parent of a compound that is named as a salt. The list shows a part of the results. Plates or batches differ in their baseline, so values are only roughly comparable.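 Wild-type or misfolding-prone missense mutant B-domain-deleted factor VIII, fused to Gaussia luciferase, is stably expressed in HEK293 lines. Each score is (mean triplicate-well luminescence minus DMSO mean) divided by DMSO standard deviation. Hits score at least 2; lower scores could stem from decreased secretion or poorer cell viability.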
# Tests used:
# HEK293 WT BDD-FVIII-Gluc = test: secreted FVIII-Gluc luciferase Z-score vs DMSO control; higher = more FVIII-Gluc secretion; conditions: 5 µM; 24 h
# [1] = tested on: HEK293 p.N1941S BDD-FVIII-Gluc; test: as above; conditions: 5 µM; 24 h
Compound,secreted FVIII-Gluc luciferase Z-score (HEK293 WT BDD-FVIII-Gluc),secreted FVIII-Gluc luciferase Z-score [1]
Cc1cccc([C@H](C)c2c[nH]cn2)c1C [Dexmedetomidine HCl (Precedex)],inactive: 1.33,inactive: -0.941
CNCC(=O)c1ccc(O)c(O)c1 [Adrenalone HCl],inactive: -0.977,inactive: 0.7
CC(C)NCC(O)c1ccccc1Cl (configuration not stated) [Clorprenaline HCL],active: 3.8,inactive: 0.0542
CCCCCCCCCCCCCCCC[n+]1ccccc1 [Cetylpyridinium Chloride],inactive: -4.55,inactive: -3.04
CN1c2ccccc2C(NCCCCCCC(=O)O)c2ccc(Cl)cc2S1(=O)=O (configuration not stated) [Tianeptine sodium],inactive: -3.89,inactive: -0.0658
CC(NC(C)(C)C)C(=O)c1cccc(Cl)c1 (configuration not stated) [Amfebutamone (Bupropion)],inactive: -0.389,inactive: 0.000319
CC(C)N(CCNC(=O)CN1CCCC1=O)C(C)C [Pramiracetam],inactive: -2.29,inactive: -1.02
CC(=O)O[C@H]1C[C@@H]2CC[C@@H]3[C@H](CC[C@@]4(C)[C@H]3C[C@H]([N+]3(C)CCCCC3)[C@@H]4OC(C)=O)[C@@]2(C)C[C@@H]1[N+]1(C)CCCCC1 [Pancuronium (Pavulon)],inactive: -0.657,inactive: -1.43
O=C(O[C@H]1C[C@H]2CC[C@@H](C1)[N+]21CCCC1)C(O)(c1ccccc1)c1ccccc1 [Trospium chloride (Sanctura)],inactive: -0.532,inactive: 0.563
O=P1(N(CCCl)CCCl)NCCCO1 (configuration not stated) [Cyclophosphamide monohydrate],inactive: -1.42,inactive: -1.46
CCC1(c2cccc(O)c2)CCCCN(C)C1 (configuration not stated) [Meptazinol HCl],inactive: 0.22,inactive: -0.427
CN1C(=O)CCS(=O)(=O)C1c1ccc(Cl)cc1 (configuration not stated) [Chlormezanone (Trancopal)],inactive: -0.916,inactive: 0.116
N.N.[Cl][Pt][Cl] [Cisplatin],inactive: 0.994,active: 3.45
CCC1(c2ccc(N)cc2)CCC(=O)NC1=O (configuration not stated) [Aminoglutethimide (Cytadren)],inactive: 1.77,inactive: -1.51
CCCN1C[C@H](CSC)C[C@@H]2c3cccc4[nH]cc(c34)C[C@H]21 [Pergolide mesylate],inactive: -0.664,inactive: -1.19
CC(=O)OC1CN2CCC1CC2 (configuration not stated) [Aceclidine HCl],inactive: -0.287,inactive: 1.21
Cc1cccc(Cc2c[nH]cn2)c1C [Detomidine HCl],inactive: -0.622,inactive: -0.377
CCC1(C)CC(=O)NC(=O)C1 [Bemegride],inactive: -0.895,inactive: 1.74
CN1[C@@H]2CC[C@H]1C[C@@H](OC(=O)[C@H](CO)c1ccccc1)C2 [Hyoscyamine (Daturine)],inactive: -0.446,inactive: 0.451
C=CC[C@]1(O)CC[C@H]2[C@@H]3CCC4=CC(=O)CCC4=C3C=C[C@@]21C [Altrenogest],inactive: -0.482,inactive: -1.49
CN1[C@@H]2CC[C@H]1C[C@@H](OC(=O)C(CO)c1ccccc1)C2 (some centres not stated) [Atropine sulfate monohydrate],inactive: -0.572,inactive: -2.59
C[C@@H]1O[C@@H](O[C@H]2C[C@@H](O)[C@]3(CO)[C@H]4[C@H](O)C[C@]5(C)[C@@H](C6=CC(=O)OC6)CC[C@]5(O)[C@@H]4CC[C@]3(O)C2)[C@H](O)[C@H](O)[C@H]1O [Ouabain],inactive: -3.89,inactive: -5.69
C[C@@H]1CC[C@H]2[C@@H](C)C(=O)O[C@@H]3O[C@@]4(C)CC[C@@H]1[C@]32OO4 [Artemisinin],inactive: -1.05,inactive: -0.914
COc1cc2c(cc1OC)[C@@]13CCN4CC5=CCO[C@H]6CC(=O)N2[C@H]1[C@H]6[C@H]5C[C@H]43 [Brucine],inactive: 0.382,inactive: 0.761
CC(C)N(CCC(C(N)=O)(c1ccccc1)c1ccccn1)C(C)C (configuration not stated) [Disopyramide Phosphate],inactive: 1.36,inactive: 0.858
"NCC(O)c1ccc(O)cc1 (racemic) [(+,-)-Octopamine HCl]",inactive: -1.07,inactive: 0.563

# Complete entries from above. Order of values: secreted FVIII-Gluc luciferase Z-score (HEK293 WT BDD-FVIII-Gluc) | secreted FVIII-Gluc luciferase Z-score [1]
# `CN1[C@@H]2CC[C@H]1C[C@@H](OC(=O)[C@H](CO)c1ccccc1)C2` [Hyoscyamine (Daturine)] in the list: inactive: -0.446 | inactive: 0.451
# `CC(C)N(CCC(C(N)=O)(c1ccccc1)c1ccccn1)C(C)C` (configuration not stated) [Disopyramide Phosphate] in the list: inactive: 1.36 | inactive: 0.858
